This note sets out measurements from patent US6667387B1, “HCV core peptides” (priority 1992, dated 2003).

Ends that are not written are not given here.

The series is described as follows: Detection of biotinylated peptides coated directly, with streptavidin:horseradish peroxidase conjugate. The conditions noted are these: coating 10 nanograms per milliliter to 3 micrograms per milliliter.
PQRKTKRNTNRRPQDVKFPG: the “binding of directly coated biotinylated peptide to the wells of the polystyrene microtiter plate” value is listed as “very significant binding to the solid phase”. As for SQHLPYIEQGMMLAEQFKQK, the entry is “bind only weakly”. Then “Leu-Arg-Lys-Ser-Arg-Arg-Phe-Ala-Gln-Ala-Leu-Pro-Val-Trp-Ala-Arg-Pro-Asp-Tyr-Asn [Peptide XVI] (LRKSRRFAQALPVWARPDYN; printed: Leu-Arg-Lys-Ser-Arg-Arg-Phe-Ala-Gln-Ala-Leu-Pro-Val-Trp-Ala-Arg-Pro-Asp-Tyr-Asn)”, with “bind only weakly”.
